Source: paper doi:10.1101/2024.12.12.628173
Results are given in words; binding and its absence hold for the method and conditions named. In cells and extracts the contact can be indirect. Some binding calls cover weakened binding; strength is not graded here.

By UniProt entry, the sequences of proteins in these tests, tags left out. Where a name states a change or a piece, a line headed by the entry shows the natural chain unless it says otherwise. Residues count along the entry.
UniProt Q9UBI1, residues 1-124: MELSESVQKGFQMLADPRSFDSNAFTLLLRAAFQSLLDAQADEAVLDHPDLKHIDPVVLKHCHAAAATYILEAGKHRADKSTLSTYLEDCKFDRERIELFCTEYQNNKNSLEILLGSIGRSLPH
UniProt P84077: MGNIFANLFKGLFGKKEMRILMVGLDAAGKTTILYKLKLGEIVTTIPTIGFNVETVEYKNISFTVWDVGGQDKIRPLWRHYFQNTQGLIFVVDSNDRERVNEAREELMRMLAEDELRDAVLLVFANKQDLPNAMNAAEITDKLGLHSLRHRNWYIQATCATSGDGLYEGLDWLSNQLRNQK

Target: 3xFLAG-tagged COMMD3-NTD (human) (UniProt Q9UBI1)
Test: co-IP; HA-tagged ARF1 Q71L and 3xFLAG-tagged COMMD3-NTD co-expressed in 293T cells; immunoprecipitation with anti-FLAG antibodies, detection by immunoblotting

- binding: binds
Substance: HA-tagged ARF1 Q71L (from UniProt P84077 1-181)
